{"sequences": {"note": "The chains behind the UniProt entries cited, without tags or fusion partners.", "UniProt Q03164, whole entry, looked up": "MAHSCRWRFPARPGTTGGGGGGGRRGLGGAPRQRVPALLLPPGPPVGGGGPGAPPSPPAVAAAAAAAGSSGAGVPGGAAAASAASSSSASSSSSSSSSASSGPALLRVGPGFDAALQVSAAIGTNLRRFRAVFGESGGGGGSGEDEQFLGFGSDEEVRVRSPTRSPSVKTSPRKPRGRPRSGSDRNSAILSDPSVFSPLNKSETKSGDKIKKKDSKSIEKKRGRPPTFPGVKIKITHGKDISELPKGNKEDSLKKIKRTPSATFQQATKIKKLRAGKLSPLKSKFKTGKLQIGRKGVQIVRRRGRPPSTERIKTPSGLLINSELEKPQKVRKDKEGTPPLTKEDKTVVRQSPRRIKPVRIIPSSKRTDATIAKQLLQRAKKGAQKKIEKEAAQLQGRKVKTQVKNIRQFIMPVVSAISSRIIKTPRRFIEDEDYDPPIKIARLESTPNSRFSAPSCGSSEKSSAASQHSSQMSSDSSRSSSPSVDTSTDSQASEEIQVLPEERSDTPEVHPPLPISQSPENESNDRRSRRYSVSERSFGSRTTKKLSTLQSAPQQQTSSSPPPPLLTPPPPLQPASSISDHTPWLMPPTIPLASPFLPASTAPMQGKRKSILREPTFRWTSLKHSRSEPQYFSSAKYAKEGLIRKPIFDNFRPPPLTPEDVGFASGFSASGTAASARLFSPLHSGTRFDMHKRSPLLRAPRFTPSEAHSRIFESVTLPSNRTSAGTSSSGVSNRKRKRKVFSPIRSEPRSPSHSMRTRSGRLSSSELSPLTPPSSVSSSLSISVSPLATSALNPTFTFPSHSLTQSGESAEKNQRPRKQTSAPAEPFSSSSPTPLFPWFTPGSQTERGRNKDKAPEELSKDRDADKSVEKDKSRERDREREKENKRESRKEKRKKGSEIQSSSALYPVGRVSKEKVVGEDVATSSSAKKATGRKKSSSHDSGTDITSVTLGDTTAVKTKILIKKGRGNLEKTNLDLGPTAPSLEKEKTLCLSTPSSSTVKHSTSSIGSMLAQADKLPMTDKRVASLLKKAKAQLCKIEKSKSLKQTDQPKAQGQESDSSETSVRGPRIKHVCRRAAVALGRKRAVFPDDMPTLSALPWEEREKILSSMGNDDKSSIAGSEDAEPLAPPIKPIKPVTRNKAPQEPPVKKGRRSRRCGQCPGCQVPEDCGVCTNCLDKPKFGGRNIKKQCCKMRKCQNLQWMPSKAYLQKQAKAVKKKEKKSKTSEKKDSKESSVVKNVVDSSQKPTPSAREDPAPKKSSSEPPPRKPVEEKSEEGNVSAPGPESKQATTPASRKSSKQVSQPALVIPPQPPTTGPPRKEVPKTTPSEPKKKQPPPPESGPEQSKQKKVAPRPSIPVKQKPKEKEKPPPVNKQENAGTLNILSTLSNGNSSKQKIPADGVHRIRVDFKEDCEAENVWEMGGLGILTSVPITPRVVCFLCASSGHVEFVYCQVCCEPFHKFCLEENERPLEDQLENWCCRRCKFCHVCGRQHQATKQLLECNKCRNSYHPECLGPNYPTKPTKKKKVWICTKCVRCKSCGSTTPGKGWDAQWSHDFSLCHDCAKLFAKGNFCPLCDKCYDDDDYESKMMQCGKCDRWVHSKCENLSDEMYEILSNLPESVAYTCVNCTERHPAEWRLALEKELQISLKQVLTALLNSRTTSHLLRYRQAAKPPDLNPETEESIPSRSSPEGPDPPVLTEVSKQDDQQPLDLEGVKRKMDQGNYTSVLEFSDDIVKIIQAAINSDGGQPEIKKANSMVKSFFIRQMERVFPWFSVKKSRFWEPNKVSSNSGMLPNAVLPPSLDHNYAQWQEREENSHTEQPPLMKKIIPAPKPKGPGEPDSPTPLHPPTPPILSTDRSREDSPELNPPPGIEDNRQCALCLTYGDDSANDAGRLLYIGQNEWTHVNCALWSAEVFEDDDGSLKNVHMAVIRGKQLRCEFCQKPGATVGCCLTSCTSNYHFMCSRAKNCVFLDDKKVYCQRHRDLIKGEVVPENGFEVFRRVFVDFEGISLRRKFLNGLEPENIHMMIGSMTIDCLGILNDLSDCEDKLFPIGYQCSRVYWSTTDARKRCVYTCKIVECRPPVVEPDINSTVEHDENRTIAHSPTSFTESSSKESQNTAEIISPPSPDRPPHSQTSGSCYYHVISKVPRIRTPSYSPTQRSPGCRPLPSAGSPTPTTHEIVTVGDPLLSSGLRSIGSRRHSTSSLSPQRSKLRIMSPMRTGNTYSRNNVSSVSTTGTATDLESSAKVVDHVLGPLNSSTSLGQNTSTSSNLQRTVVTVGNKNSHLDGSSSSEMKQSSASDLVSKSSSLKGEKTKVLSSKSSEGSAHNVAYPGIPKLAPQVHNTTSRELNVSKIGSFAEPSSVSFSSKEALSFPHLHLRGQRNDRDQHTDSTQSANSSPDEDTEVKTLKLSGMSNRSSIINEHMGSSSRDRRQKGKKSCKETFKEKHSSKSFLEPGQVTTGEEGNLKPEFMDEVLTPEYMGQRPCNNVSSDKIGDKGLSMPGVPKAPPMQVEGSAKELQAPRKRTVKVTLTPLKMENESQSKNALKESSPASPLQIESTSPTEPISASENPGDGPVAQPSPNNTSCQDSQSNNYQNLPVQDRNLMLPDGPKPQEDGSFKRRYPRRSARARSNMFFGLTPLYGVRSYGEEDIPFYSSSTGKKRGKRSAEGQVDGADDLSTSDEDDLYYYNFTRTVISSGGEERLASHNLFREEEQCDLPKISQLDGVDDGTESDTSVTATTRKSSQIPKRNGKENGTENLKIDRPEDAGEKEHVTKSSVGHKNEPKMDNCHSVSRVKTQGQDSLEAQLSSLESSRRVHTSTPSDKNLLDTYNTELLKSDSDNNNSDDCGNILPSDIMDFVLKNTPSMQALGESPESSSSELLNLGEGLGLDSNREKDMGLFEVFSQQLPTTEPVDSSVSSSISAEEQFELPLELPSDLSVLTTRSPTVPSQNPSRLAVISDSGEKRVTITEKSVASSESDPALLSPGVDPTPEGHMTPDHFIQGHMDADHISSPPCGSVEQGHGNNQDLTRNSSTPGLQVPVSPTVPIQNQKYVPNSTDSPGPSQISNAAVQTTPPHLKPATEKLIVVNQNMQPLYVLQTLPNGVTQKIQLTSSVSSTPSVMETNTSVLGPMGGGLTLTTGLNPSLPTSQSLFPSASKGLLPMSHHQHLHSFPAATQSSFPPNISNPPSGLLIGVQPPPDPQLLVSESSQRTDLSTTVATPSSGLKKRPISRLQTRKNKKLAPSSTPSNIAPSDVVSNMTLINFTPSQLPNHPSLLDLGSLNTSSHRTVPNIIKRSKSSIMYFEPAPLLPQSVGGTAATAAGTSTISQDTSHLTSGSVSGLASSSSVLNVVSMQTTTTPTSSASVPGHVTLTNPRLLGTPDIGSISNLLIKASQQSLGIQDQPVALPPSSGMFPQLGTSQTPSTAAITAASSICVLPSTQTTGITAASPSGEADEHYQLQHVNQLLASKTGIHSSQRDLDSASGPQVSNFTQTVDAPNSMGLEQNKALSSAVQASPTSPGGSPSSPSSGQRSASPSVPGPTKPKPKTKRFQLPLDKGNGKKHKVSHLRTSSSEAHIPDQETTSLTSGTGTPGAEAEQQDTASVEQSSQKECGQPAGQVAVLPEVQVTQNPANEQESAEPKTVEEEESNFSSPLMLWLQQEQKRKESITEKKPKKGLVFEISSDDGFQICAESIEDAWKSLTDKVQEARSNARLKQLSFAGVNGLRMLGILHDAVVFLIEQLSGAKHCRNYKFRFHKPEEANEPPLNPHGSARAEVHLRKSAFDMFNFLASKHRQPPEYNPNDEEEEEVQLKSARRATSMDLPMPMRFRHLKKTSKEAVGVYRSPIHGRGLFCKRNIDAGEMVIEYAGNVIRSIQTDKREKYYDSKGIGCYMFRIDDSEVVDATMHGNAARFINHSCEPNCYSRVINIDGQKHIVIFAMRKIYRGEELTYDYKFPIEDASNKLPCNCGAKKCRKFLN"}, "source": "PubChem BioAssay AID2662", "about": "(National Center for Advancing Translational Sciences (NCATS), 2010)", "note": "Among all 290,000 compounds or so, about 110 (0.038%) were called active. This list was built around the results that the source calls inconclusive (neither active nor inactive); the mix of calls is not that of the screen. The call rests on the fitted dose curve; in most records, active means well fitted inhibition curve with a large enough effect in the polarisation, with a control signal flat (not every such curve was filed as active); inconclusive means small, poorly fitted or top-dose-only effect, or effect the other way, or a change in a side signal; inactive means no such curve, though single readings can be large or run the other way; the % refers to the polarisation. Potencies beside an inconclusive call are fits to weak or partial responses and may not hold up. A note “side channel” means that the fit belongs to a control or component signal, not to the main read-out. Potency means the concentration at half of the fitted maximal effect.", "data": [{"biological_target": "Histone-lysine N-methyltransferase 2A (Homo sapiens) (UniProt Q03164)", "test": "qHTS Fluorescence Polarization Assay for Inhibitors of MLL CXXC domain - DNA interaction", "conditions": "MLL-CXXC / FITC-HOXA9 DNA fluorescence polarization; series mostly up to 115 µM", "outline": "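Steps: dispense CXXC domain solution (7 uM) → pin compounds or unlabeled HOX-A9 DNA control → 5 min ambient → add FLSN-HOX-A9 solution (50 nM) → spin → 30 min ambient → fluorescence polarization. Tris pH 7.5/NaCl/DTT/BSA buffer.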", "values": [{"smiles": "Cn1nc(C(=O)N2CCN(c3ccc([N+](=O)[O-])cc3)CC2)c2c1-c1ccccc1S(=O)(=O)C2", "Potency": "inactive"}, {"smiles": "Cc1ccc(NC(=O)N2CCN(C(=O)c3ccco3)CC2)cc1Cl", "Potency": "inconclusive: 15.8 µM [fluorescent, side channel, single point]"}, {"smiles": "C[C@]12C=CC(=O)N[C@@H]1CC[C@@H]1C2CC[C@]2(C)C(C(=O)Nc3cc(C(F)(F)F)ccc3C(F)(F)F)CC[C@@H]12", "note": "(some centres not stated)", "Potency": "inactive"}, {"smiles": "CC1C(=O)N(Cc2cccc(F)c2)c2ccccc2N1C(=O)c1ccccc1", "note": "(configuration not stated)", "Potency": "inconclusive: 7.08 µM [fluorescent, side channel, partial curve]"}, {"smiles": "CC(C)(C)SCCSC1=CC(=O)CC(c2ccccc2)C1", "note": "(configuration not stated)", "Potency": "inconclusive: 35.5 µM [inhibitor, partial curve]"}, {"smiles": "CC1(C)Cc2ccccc2C(NNC(=O)c2cccnc2)=N1", "Potency": "inactive"}, {"smiles": "NC1=NC(c2cn(-c3ccccc3)nc2-c2cccs2)n2c(nc3ccccc32)N1", "note": "(configuration not stated)", "Potency": "inconclusive: 39.8 µM [quencher, side channel, partial curve]"}, {"smiles": "COc1ccc(N=C2S/C(=C\\c3ccc(Cl)c([N+](=O)[O-])c3)C(=O)N2CCN(C)C)cc1", "Potency": "inconclusive: 20 µM [quencher, side channel, partial curve]"}, {"smiles": "COC1=C/C(=C/c2c(N)n3nc(CC(=O)N4CCOCC4)sc3nc2=O)C=CC1=O", "Potency": "inconclusive: 39.8 µM [fluorescent, partial curve]"}, {"smiles": "O=c1nc2s/c(=C\\c3ccco3)c(=O)n2nc1Cc1ccc(F)cc1", "Potency": "inactive"}, {"smiles": "COc1cccc(-c2nc3ccccc3s2)c1", "Potency": "inactive"}, {"smiles": "CS(=O)(=O)N(CCc1ccccc1)CC(=O)NCc1cccnc1", "Potency": "inactive"}, {"smiles": "O=C(O)c1cc2c(s1)-c1ccccc1CC2", "Potency": "inactive"}, {"smiles": "COc1ccc2[nH]c3c(c2c1)CCNC3c1ccc([N+](=O)[O-])o1", "note": "(configuration not stated)", "Potency": "inconclusive: 35.5 µM [fluorescent, side channel, partial curve]"}, {"smiles": "O=C(CN1CCN(S(=O)(=O)c2ccccc2)CC1)Nc1ccccc1Cl", "Potency": "inconclusive: 15.8 µM [quencher, side channel, single point]"}, {"smiles": "CCOc1ccc(-c2c(C#N)c(N)nc3sc(C(=O)c4ccccc4)c(N)c23)cc1", "Potency": "inconclusive: 35.5 µM [fluorescent, side channel, single point]"}, {"smiles": "O/C(=C\\c1ccc2ccccc2n1)c1ccc(O)cc1O", "Potency": "inconclusive: 39.8 µM [fluorescent, side channel, partial curve]"}, {"smiles": "CCOc1ccc2[nH]c3c(NCCOC)ncnc3c2c1", "Potency": "inconclusive: 14.1 µM [inhibitor, single point]"}, {"smiles": "O=C(N/N=C/c1ccc(Br)o1)c1ccc2c(c1)OCCO2", "Potency": "inconclusive: 10 µM [fluorescent, side channel, partial curve]"}, {"smiles": "O=C1c2cccc3c(N4CCCCC4)ccc(c23)C(=O)N1CCO", "Potency": "inconclusive: 50.1 µM [fluorescent, side channel, single point]"}, {"smiles": "C/C(=N\\Nc1nnc(-c2ccccc2)c(-c2ccccc2)n1)c1cccc([N+](=O)[O-])c1", "Potency": "inconclusive: 15.8 µM [inhibitor, single point]"}, {"smiles": "Clc1ccc(C2=CC(c3ccco3)n3ncnc3N2)cc1", "note": "(configuration not stated)", "Potency": "inconclusive: 35.5 µM [fluorescent, side channel, single point]"}, {"smiles": "O=C(C1=NN(c2ccccc2)C2C(=O)N(c3ccccc3Cl)C(=O)C12)c1ccccc1", "note": "(configuration not stated)", "Potency": "inconclusive: 35.5 µM [fluorescent, side channel, partial curve]"}, {"smiles": "CC1(C)CC(NC(=O)c2ccccc2)CC(C)(C)N1", "Potency": "inactive"}, {"smiles": "CN1CCN(Cc2nc3ccccc3c(=O)n2Cc2nc(-c3ccc([N+](=O)[O-])cc3)cs2)CC1", "Potency": "inconclusive: 89.1 µM [quencher, side channel, single point]"}, {"smiles": "COc1ccc(N=Cc2c(O)ccc3ccccc23)cc1", "Potency": "inconclusive: 44.7 µM [fluorescent, side channel, single point]"}, {"smiles": "CCOC(=O)c1cc[n+](CC(=O)c2ccc(F)cc2)cc1", "Potency": "inconclusive: 31.6 µM [fluorescent, side channel, single point]"}, {"smiles": "COc1ccc(/C=N/NC(=O)c2ccco2)cc1COc1ccc(F)cc1", "Potency": "inconclusive: 7.94 µM [quencher, side channel, single point]"}, {"smiles": "CC(C)(C)c1csc(NC(=O)c2ccccc2O)n1", "Potency": "inactive"}, {"smiles": "c1ccc(Nc2nc3ccccc3n3nnnc23)cc1", "Potency": "inconclusive: 70.8 µM [fluorescent, side channel, single point]"}, {"smiles": "C=CCC(CC)C(=O)NC(=O)N1CCCc2ccccc21", "note": "(configuration not stated)", "Potency": "inconclusive: 31.6 µM [fluorescent, side channel, single point]"}, {"smiles": "CCC1C(C#N)=C(SCC(N)=O)NC2=C1C(=O)CC(C)(C)C2", "note": "(configuration not stated)", "Potency": "inactive"}, {"smiles": "COc1ccc(C2NCCc3c2[nH]c2ccccc32)cc1CSc1nc2ccccc2s1", "note": "(configuration not stated)", "Potency": "inconclusive: 89.1 µM [quencher, side channel, single point]"}, {"smiles": "O=C(NCc1ccc2[nH]c3c(c2c1)CCCC3)N1CCOCC1", "Potency": "inconclusive: 63.1 µM [inhibitor, single point]"}, {"smiles": "CSC1=NC(=O)/C(=C\\c2cccc3ccccc23)S1", "Potency": "inconclusive: 28.2 µM [fluorescent, side channel, partial curve, poor fit]"}, {"smiles": "CCC1(c2ccc(F)cc2)NC(=O)N(CC(=O)Nc2ccc(-c3nc4ccc(C)cc4s3)cc2)C1=O", "note": "(configuration not stated)", "Potency": "inactive"}, {"smiles": "COc1ccc(-n2cc(-c3ccccc3)[nH]c2=S)cc1", "Potency": "inconclusive: 44.7 µM [inhibitor, single point]"}, {"smiles": "CCOc1ccc(S(=O)(=O)NCc2ccc(C)cc2)c2cccnc12", "Potency": "inactive"}, {"smiles": "Cc1ccc(-n2c(-c3ccc(Br)cc3)c[n+]3c2CCc2ccc4cccnc4c2-3)cc1", "Potency": "inconclusive: 35.5 µM [quencher, partial curve]"}, {"smiles": "Cc1noc(C)c1COc1cccc(C(=O)OCC(=O)NC(=O)c2ccc(OC(F)F)cc2)c1", "Potency": "inconclusive: 100 µM [fluorescent, side channel, partial curve, poor fit]"}, {"smiles": "Cc1ccc2cc3c(N)c4c(C)ccc(C)c4nc3nc2c1", "Potency": "inconclusive: 28.2 µM [quencher, side channel, partial curve]"}, {"smiles": "CCOC(=O)c1c(C)[nH]c(C)c1S(=O)(=O)NCCc1ccc(SC)cc1", "Potency": "inconclusive: 11.2 µM [fluorescent, side channel, single point]"}, {"smiles": "O=C(CCn1cncn1)N1CCCC(N2CCN(c3cccc(C(F)(F)F)c3)CC2)C1", "note": "(configuration not stated)", "Potency": "inconclusive: 3.55 µM [quencher, side channel, partial curve]"}, {"smiles": "Cc1ccc(C(=O)CSc2nc(C(C)C)nc3ccccc23)cc1", "Potency": "inconclusive: 1.26 µM [inhibitor, full curve, poor fit]"}, {"smiles": "Cc1cc2n(n1)C(c1sccc1C)Nc1c(C)cccc1-2", "note": "(configuration not stated)", "Potency": "inactive"}, {"smiles": "CC(C)CC(=O)/C(=C/c1ccc(N(C)C)cc1)n1cncn1", "Potency": "inconclusive: 7.08 µM [inhibitor, single point]"}, {"smiles": "Cc1ccc(NC(=O)CCNC(=O)c2ccc(Br)cc2)nc1", "Potency": "inconclusive: 11.2 µM [fluorescent, side channel, partial curve]"}, {"smiles": "O=C(Nc1ccc2c(c1)OCO2)C1CC(c2ccc(Cl)cc2)=NO1", "note": "(configuration not stated)", "Potency": "inconclusive: 10 µM [inhibitor, full curve, poor fit]"}, {"smiles": "O=C(NC1CCCc2ccccc21)c1ccc(Br)cc1", "note": "(configuration not stated)", "Potency": "inconclusive: 3.55 µM [fluorescent, side channel, full curve, poor fit]"}, {"smiles": "O=S(=O)(c1ccc(Cl)cc1)N1CCN(C(=S)NCC2CCCO2)CC1", "note": "(configuration not stated)", "Potency": "inconclusive: 14.1 µM [fluorescent, side channel, single point]"}, {"smiles": "NC(=O)c1nsc(C(=O)N(c2ccccc2)C(C(=O)NCc2ccc(F)cc2)c2ccco2)c1N", "note": "(configuration not stated)", "Potency": "inconclusive: 7.94 µM [fluorescent, side channel, full curve]"}, {"smiles": "CCOC(=O)c1ccc(S(=O)(=O)NNC(=O)COc2cccc(C)c2)cc1", "Potency": "inconclusive: 70.8 µM [fluorescent, side channel, single point]"}, {"smiles": "OC[C@@H]1O[C@](CO)(O[C@H]2O[C@H](CO)[C@@H](O)[C@H](O)[C@H]2O)[C@H](O)[C@H]1O", "Potency": "inactive"}, {"smiles": "CC(=O)c1ccc(-n2ccc(=O)cc2)cc1", "Potency": "inconclusive: 14.1 µM [fluorescent, side channel, single point]"}, {"smiles": "O=C(N/N=C/c1c(O)n(Cc2ccccc2)c(=O)c2ccccc12)c1cccnc1", "Potency": "inconclusive: 14.1 µM [fluorescent, side channel, full curve]"}, {"smiles": "O=C1C2CCCN2C(=S)N1c1ccccc1", "note": "(configuration not stated)", "Potency": "inconclusive: 14.1 µM [fluorescent, side channel, single point]"}, {"smiles": "O=C(NCCCOc1cccc(CN2CCCCC2)c1)c1ccc(Cl)c(Cl)c1", "Potency": "inactive"}, {"smiles": "Cc1ccc2cc(C(c3nnnn3C3CCCC3)N3CCOCC3)c(=O)[nH]c2c1C", "note": "(configuration not stated)", "Potency": "inactive"}, {"smiles": "CC1=NN(c2ccccc2)C(=O)/C1=C\\C=C\\c1ccccc1", "Potency": "inconclusive: 7.08 µM [inhibitor, full curve]"}, {"smiles": "COc1ccc(C)cc1N(C(=O)COc1ccccc1)c1nc2ccccc2s1", "Potency": "inactive"}, {"smiles": "CC(=O)N1CC=C2C(C#N)=C(N)C(C#N)(C#N)[C@H](c3ccoc3)[C@H]2C1", "Potency": "inactive"}, {"smiles": "Cc1nn(C)c(C)c1N=Cc1c(O)ccc2ccccc12", "Potency": "inconclusive: 89.1 µM [fluorescent, side channel, single point]"}]}]}
